The text below walks through data of PubChem BioAssay AID2685 (National Center for Advancing Translational Sciences (NCATS), 2010).

The assay in a line: qHTS Assay for Lipid Storage Modulators in Drosophila S3 Cells.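 On cell number change: cells counted by Cell Tracker Red CMTPX staining in the red channel.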 The settings on record: BODIPY lipid droplet fluorescence, 18-24 h; for cell number change: measured here: cell count max response, cells fed with added oleic acid. An outline of the steps: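 Drosophila S3 cells got compounds at several concentrations plus oleic acid (400 uM solution). Laser-scanning cytometry with 488 nm excitation read lipid droplets at 500-530 nm and cells at 575-640 nm. Percent activity was relative to 20 uM Triacsin C.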
In general terms: In qHTS, concentration-response curves come from the screen itself.

[1] abbreviates: measured here: cell number channel AC50, cells fed with added oleic acid.
Where [2] appears, read: measured here: lipid fluorescence (Fed channel) AC50, cells fed with added oleic acid.

Some of the results follow. Shown are side measurements of this screen, not its main read-out; they come without a call. The list favours compounds with an active or inconclusive main result. The note in brackets gives the kind of curve behind each potency; many fits are weak.

One may read the AC50 as the concentration at which the activity in the assay is half-maximal. High values mean activity only at high concentration, low ones activity at low concentration. As for `C(=N\NC1=Nc2cccc3cccc1c23)/c1cccnc1`, the cell number change was -3.66%. In addition, the concentration at half-maximal activity (AC50) under setting [1] is 0.651 µM [rising, single point].

In the case of `O=C(COC(=O)c1ccccc1NS(=O)(=O)c1ccc(Cl)cc1)NCc1ccccc1`, the cell number change was 30.4%. Further, under setting [1], the AC50 was 7.31 µM [rising, partial curve, poor fit].

In the case of `Cc1ccc(NC(=O)CC2SC(=NC3CCCCC3)NC2=O)cc1` (centres undefined), under setting [2], the AC50 was 29.1 µM [rising, single point].

Consider `CCOC(=O)c1cnc2c(Cl)cccc2c1NCCN(C)C`, for which the cell number change came to 25.7%.

For `Cc1ccc(OCC(=O)OC2CCCN(C)C2)cc1` (centres undefined), the cell number change was -3.22%. For the same molecule, the half-maximal activity concentration (AC50) under setting [2] was 6.51 µM [falling, single point].

`Cc1ccc(NC(=O)c2ccc(OCC3CCCO3)cc2)nc1` (centres undefined): the cell number change is -1.19%. The AC50 under setting [1] was 0.00411 µM [falling, full curve, poor fit].

`Cc1ccc(S(=O)(=O)N2[C@@H](c3ccc(Cl)cc3)C(C(=O)O)=CC[C@H]2c2cccc(C)c2)cc1`: the cell number change was -2.3%. Also, under setting [2], the AC50 was 8.2 µM [falling, single point].

As to `O=C1CCC(Cc2ccccc2)N1` (centres undefined), the cell number change is -25.8%. In addition, the concentration at half-maximal activity (AC50) under setting [2] is 29.1 µM [falling, single point].

As for `Clc1ccc(OCCn2ccnc2)c(Cl)c1`, the cell number change was 132%. In addition, the half-maximal activity concentration (AC50) under setting [1] was 20.6 µM [rising, partial curve]. The AC50 under setting [2] was 23.1 µM [rising, partial curve].

For the molecule `COc1ccc(S(=O)(=O)N2CCCCCC2)cc1C(=O)NCCc1ccc(F)cc1`, the cell number change was determined as 10%. Further, the AC50 under setting [2] was 32.6 µM [falling, single point].

In the case of `Cc1ccc(S(=O)(=O)CC(=O)N2CC(C)OC(C)C2)cc1` (centres undefined), the cell number change is -5.93%.

Turning to `Cc1ccc2c(c1)N(Cc1ccncc1)C(=O)C(C)O2` (centres undefined), the cell number change was 1.43%. Besides, the AC50 under setting [2] was 0.731 µM [rising, full curve, poor fit].

Regarding `O=C(CNC(=O)Cc1ccccc1)NCc1cccc(C(F)(F)F)c1`, the cell number change is -17.1%.

As for `O=C(CSc1nnnn1-c1ccccc1)N1CCCc2ccccc21`, the cell number change came to 132%. The AC50 under setting [1] is 5.8 µM [rising, full curve]. Also, the concentration at half-maximal activity (AC50) under setting [2] was 4.11 µM [rising, partial curve].

Consider `CC(C)(C)c1ccc(Oc2ccc(NC(=O)c3cccs3)cn2)cc1`, for which the cell number change is -58.8%. In addition, the AC50 under setting [1] is 23.1 µM [falling, partial curve]. In addition, the half-maximal activity concentration (AC50) under setting [2] is 4.11 µM [falling, single point].

As for `CC1CCCN(C(=O)CCCC(=O)N2CCCC(C)C2)C1` (centres undefined), the cell number change was determined as 6.49%. Also, under setting [2], the concentration at half-maximal activity (AC50) is 4.11 µM [falling, full curve, poor fit].

On to `CC(C)OC(=O)C1Cc2ccccc2CN1S(=O)(=O)c1cccs1` (centres undefined), for which the cell number change was -6.35%. Also, under setting [2], the AC50 is 25.9 µM [falling, single point].

For the molecule `O=C(COC(=O)c1ccc(Cl)nc1)NNC(=O)c1ccc(Cl)cc1`, the cell number change is -2.41%.

Take `COCCCN(C(=S)NC(=O)C12CC3CC(CC(C3)C1)C2)c1c(N)n(Cc2ccccc2)c(=O)[nH]c1=O`: the cell number change is -44%. The concentration at half-maximal activity (AC50) under setting [1] was 0.0461 µM [falling, full curve]. Under setting [2], the AC50 is 0.206 µM [falling, full curve].

As to `CN1C(=S)SC(N(O)C(=O)NC2CCCCC2)C1(C)C` (centres undefined), under setting [1], the AC50 is 6.51 µM [falling, single point].

Take `CC1(C)CC2CC(C)(CN2C(=O)CCCN2C(=O)c3ccccc3C2=O)C1` (centres undefined): the cell number change was -32.6%. For the same molecule, the AC50 under setting [2] is 0.206 µM [falling, full curve].

In the case of `COc1cc(OC)cc(C(=O)N/N=C/c2ccc(OC)c(COc3ccc4ccccc4c3)c2)c1`, the cell number change is -3.48%. The AC50 under setting [2] was 11.6 µM [falling, partial curve, poor fit].

As for `CCc1cc2c(=O)c(-c3cnn(-c4ccccc4)c3)coc2c(CN2CCOCC2)c1O`, the cell number change is -26%.

For the molecule `Cc1nc2ccc(NC(=O)c3oc4ccc(F)cc4c3C)cc2s1`, the cell number change is -5.02%. The AC50 under setting [2] is 0.00517 µM [falling, full curve, poor fit].

In the case of `C=CCN1CN(S(=O)(=O)c2ccc(OC)cc2)c2nc3ccccc3nc21`, the cell number change amounted to 0.19%. Under setting [2], the half-maximal activity concentration (AC50) is 20.6 µM [falling, partial curve].

Take `COc1cccc(OCC(O)CN2CCOCC2)c1` (centres undefined): the cell number change came out at 8.64%. Further, the AC50 under setting [2] was 18.4 µM [rising, single point].

Consider `CCc1ccc(N(CC(=O)N2CCN(Cc3ccccc3)CC2)S(C)(=O)=O)cc1`, for which the cell number change is -7.97%. Moreover, the AC50 under setting [2] was 29.1 µM [falling, single point].

Turning to `COc1ccc(N(C(=O)Cn2nnc(-c3ccc(Cl)cc3)n2)C(C(=O)NCC2CCCO2)c2ccc(C)cc2)cc1` (centres undefined), the cell number change worked out at 29.9%. Further, under setting [1], the AC50 is 3.26 µM [rising, full curve, poor fit]. In addition, the half-maximal activity concentration (AC50) under setting [2] was 2.31 µM [rising, full curve].

In the case of `COc1ccc(-c2cc(CNS(=O)(=O)c3ccc(F)cc3)on2)cc1`, the cell number change turned out to be 5.92%. Besides, the concentration at half-maximal activity (AC50) under setting [1] was 0.206 µM [rising, full curve, poor fit].

For the molecule `CCc1nc2ccc(C(=O)NCCc3ccc(OC)c(OC)c3)cc2nc1CC`, the cell number change was -2.75%. Moreover, the half-maximal activity concentration (AC50) under setting [2] is 5.8 µM [falling, full curve, poor fit].

For `COc1cccc(CNC(=O)[C@@H](C)N2C(=O)N3CCc4c([nH]c5ccc(OC)cc45)C3(C)C2=O)c1` (some centres undefined), the cell number change was -32%. Moreover, the AC50 under setting [1] was 2.91 µM [falling, full curve]. In addition, under setting [2], the AC50 is 25.9 µM [falling, single point].

For `Cc1nonc1NC(=O)OC1CCCCC1`, the cell number change was 1.93%.

With `CCCCn1nnnc1NCc1ccc(N(CC)CC)cc1`, the cell number change came out at 17.6%.

In the case of `O=C1NC(NS(=O)(=O)c2ccc(Cl)cc2)(C(F)(F)F)C(=O)N1CCc1ccccc1` (centres undefined), the cell number change is 37.9%. The AC50 under setting [1] is 29.1 µM [rising, single point].

`O=C(OCC(=O)N1CCCC1=O)C1COc2ccccc2O1` (centres undefined): the AC50 under setting [2] is 0.206 µM [falling, full curve, poor fit].

Take `C[C@@]12C(=O)Nc3ccc(Cl)cc3C(=O)N1[C@H]1c3ccccc3OC[C@@H]1[C@@H]2c1ccccc1`: the AC50 under setting [2] is 0.00461 µM [falling, full curve, poor fit].

In the case of `COc1ccc(/C=C2\Oc3cc(OCC(=O)N4CC(O)C[C@H]4C(=O)O)ccc3C2=O)cc1OC` (some centres undefined), the cell number change came to 13.6%. In addition, the AC50 under setting [2] is 29.1 µM [rising, single point].

On to `O=C(COc1ccc(Cl)cc1Cl)N/N=C/CCc1ccccc1`, for which the cell number change was -39.3%. The concentration at half-maximal activity (AC50) under setting [1] was 29.1 µM [falling, single point]. The half-maximal activity concentration (AC50) under setting [2] is 29.1 µM [falling, single point].

With `CC1=NN(c2ccccc2)C(=O)C1N=Nc1ccccc1` (centres undefined), the cell number change was 7.65%. Under setting [1], the AC50 was 6.51 µM [rising, partial curve, poor fit].
